# Measurements from PubChem BioAssay AID2685 (National Center for Advancing Translational Sciences (NCATS), 2010).
# The other results are listed elsewhere or left out. These are further read-outs of the screen, such as a control signal, another cell line or another target. No call is given for them. Most of these compounds were active or inconclusive in the main read-out, so they are no random draw. Words in brackets tell the shape of the fitted curve; partial curves, single points and poor fits give uncertain potencies.
# Assay: qHTS Assay for Lipid Storage Modulators in Drosophila S3 Cells;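 on cell number change: cells counted by Cell Tracker Red CMTPX staining in the red channel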
# Conditions: BODIPY lipid droplet fluorescence, 18-24 h; for cell number change: measured here: cell count max response, cells fed with added oleic acid
# Outline: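 Laser-scanning cytometry quantifies lipid droplet accumulation (500–530 nm total intensity; droplet/cell object ratio) in oleic acid-fed (400 uM added) Drosophila S3 cells treated with a concentration series. 20 uM Triacsin C defined 100% inhibition.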
# [1] = measured here: lipid fluorescence (Fed channel) AC50, cells fed with added oleic acid
# [2] = measured here: cell number channel AC50, cells fed with added oleic acid
Compound,cell number change [%],AC50 [1],AC50 [2]
COc1ccc(S(=O)(=O)N2CCC(C(=O)Nc3nnc(CCN4CCCCC4)s3)CC2)cc1,6.54,–,–
CC(=O)c1cc(C#N)c(N2CC(C)OC(C)C2)nc1C (configuration not stated),-1.81,"1.64 µM [rising, partial curve]",–
C/C(=N\OCC(=O)OCC(=O)Nc1cc(S(C)(=O)=O)ccc1Cl)c1ccc2c(c1)OCO2,-7.42,"0.00461 µM [rising, full curve, poor fit]",–
Cc1ccc(NC2CCCN(C(=O)c3ccc4nccnc4c3)C2)cc1C (configuration not stated),14.7,"18.4 µM [rising, single point]",–
COc1ccc(NC(=O)CN(C)S(=O)(=O)c2ccccc2)cc1,–,"14.6 µM [falling, partial curve]","1.84 µM [falling, partial curve]"
CCOC(=O)CNc1nc2ccccc2n2c(C)nnc12,8.31,–,–
COc1cccc(/C=N/n2c(COc3ccccc3)n[nH]c2=S)c1OC,12.5,"29.1 µM [falling, single point]",–
CCOC(=O)C1CCN(C(=O)CNC(=O)Cn2c(C)cc3ccccc3c2=O)CC1,-1.59,"29.1 µM [falling, single point]",–
Cc1ccc(NC(=O)[C@H](NC(=O)[C@@H]2Cc3ccccc3CN2)c2ccccc2)c(C)c1,-8.94,"29.1 µM [rising, single point]",–
CSc1nc(Cl)cc(=O)[nH]1,48.6,–,"2.31 µM [rising, partial curve]"
COc1ccc(CCNC(=O)c2cc3sc(Cl)cc3n2C)cc1OC,-13.1,"16.4 µM [falling, single point]",–
C/C(CC(=O)Nc1cc(Cl)ccc1C)=N\NC(=O)C(=O)N1CCCC1,64.1,"1.46 µM [rising, full curve]","11.6 µM [rising, partial curve, poor fit]"
CCOc1ccccc1NC(=O)C1CCN(S(=O)(=O)c2c(C)noc2C)CC1,-87.2,"20.6 µM [falling, partial curve]","25.9 µM [falling, partial curve, poor fit]"
CCC(=O)N(Cc1cc2ccc(C)cc2[nH]c1=O)c1ccccc1OC,18.4,"9.2 µM [rising, partial curve]",–
C/C(=N\NC(=O)CCc1c[nH]c2ccccc12)c1ccc([N+](=O)[O-])cc1,7.41,"18.4 µM [falling, partial curve]","0.651 µM [falling, single point]"
Cc1ccc(C)c(N2CCN(C(=O)C(Cc3ccccc3)n3cccc3)CC2)c1 (configuration not stated),9.08,"0.116 µM [rising, full curve]",–
O=C(COc1ccc(C2SCCS2)cc1)Nc1ccc(Cl)cc1,-3.53,"0.366 µM [falling, partial curve, poor fit]",–
Cc1nnc(NCc2ccccc2)c2ccccc12,-11.4,"6.51 µM [rising, single point]",–
Cc1nc(SCC(=O)N2CCN(C(=O)c3cccs3)CC2)c2c(C)c(C)sc2n1,-7,–,–

Compound,cell number change [%],AC50 [1],AC50 [2]
CCCCCN(C(=O)COC(=O)c1ccc(C)cc1)c1c(N)n(CCCC)c(=O)[nH]c1=O,-25.9,"1.16 µM [falling, full curve]","0.146 µM [falling, full curve, poor fit]"
Cc1cc[n+](-c2ccccc2)c2ccccc12,-59.7,–,–
Cc1nc(SCC(=O)NC(C)(C)C)c2c(-c3cccs3)csc2n1,-4.16,"18.4 µM [rising, partial curve]","0.411 µM [rising, partial curve, poor fit]"
Cc1nc2c(C)cccc2c2c1CCS2,-1.55,–,–
CC1=NOC(=O)/C1=C\c1ccc(-c2ccc(Br)cc2)o1,-65.4,"23.1 µM [falling, single point]","29.1 µM [falling, single point]"
Cc1ccc(CSCc2ccc(C(=O)NC3CC3)o2)cc1,6.6,"18.4 µM [falling, partial curve]","6.51 µM [falling, partial curve, poor fit]"
CCN1CCN(CCCNc2ncnc3nc[nH]c23)CC1,-8.59,"14.6 µM [falling, partial curve]",–
O=S1(=O)C=C(Sc2nc3ccccc3s2)c2ccccc21,-89.2,"2.59 µM [rising, single point]","14.6 µM [falling, partial curve]"
CC1(C)Cc2nc3sc4c(SCC(=O)NCc5ccccc5)ncnc4c3cc2CO1,111,–,"16.4 µM [rising, single point]"
CC1(CC(=O)N/N=C/c2ccc(OCc3ccc(Cl)cc3Cl)cc2)OCCCO1,9.6,"25.9 µM [rising, single point]",–
Cc1ccc(C(=O)NCC(=O)NC2CCCCCC2)cc1,-6.35,"8.2 µM [rising, partial curve]",–
S=c1[nH]ccn1-c1c(Cl)cccc1Cl,–,"5.8 µM [rising, partial curve, poor fit]",–
CN1CCN(c2ccc([N+](=O)[O-])cc2/C=N/NC(=O)c2cccc([N+](=O)[O-])c2)CC1,3.29,"14.6 µM [falling, single point]",–
CC(=O)Nc1ccc(Sc2ccccc2C(=O)N2CCCC2)cn1,68.8,–,"29.1 µM [rising, single point]"
Cc1ccc(CNC(=O)C2CCCN2C(=O)Nc2ccccc2)cc1 (configuration not stated),-6.82,"29.1 µM [rising, single point]",–
CC1(C)N=C(N)N=C(N)N1c1ccccc1,-50.6,"0.13 µM [falling, full curve, poor fit]","0.366 µM [falling, full curve]"
Cc1noc(C)c1CSc1nnc2cc(C)c3ccccc3n12,1.52,"2.06 µM [rising, single point]",–
COc1ccc(S(=O)(=O)N2CCN(CCOc3ccc(Br)cc3)CC2)cc1OC,-34.1,"0.00461 µM [falling, full curve, poor fit]","0.116 µM [falling, full curve, poor fit]"
Cc1nccn1S(=O)(=O)c1cc([N+](=O)[O-])ccc1Cl,7.33,"29.1 µM [falling, single point]","0.517 µM [rising, full curve]"

# Three records picked at random from those above, as already listed:
Compound,cell number change [%],AC50 [1],AC50 [2]
CC(=O)Nc1ccc(Sc2ccccc2C(=O)N2CCCC2)cn1,68.8,–,"29.1 µM [rising, single point]"
CC1(C)Cc2nc3sc4c(SCC(=O)NCc5ccccc5)ncnc4c3cc2CO1,111,–,"16.4 µM [rising, single point]"
COc1ccc(NC(=O)CN(C)S(=O)(=O)c2ccccc2)cc1,–,"14.6 µM [falling, partial curve]","1.84 µM [falling, partial curve]"

# The list continues.

Compound,cell number change [%],AC50 [1],AC50 [2]
O=C(NCCc1ccccc1)C(c1ccccc1F)N(C(=O)c1csnn1)C1CC1 (configuration not stated),18.3,"29.1 µM [rising, single point]",–
NC(=O)CSc1nnc(-c2cccnc2)n1CCc1ccccc1,30.3,"32.6 µM [rising, single point]","16.4 µM [rising, single point]"
O=C1ON=C(c2ccccc2)/C1=C/c1ccc(OS(=O)(=O)c2ccccc2)cc1,–,–,"6.51 µM [rising, single point]"
CN1CCN(CC(O)(c2ccc(Cl)cc2)c2ccc(Cl)cc2)CC1,-20.3,"6.51 µM [falling, partial curve, poor fit]","0.0411 µM [falling, partial curve, poor fit]"
COc1ccccc1OCCCOc1ccc(C)cc1Br,32,"14.6 µM [rising, partial curve]","9.2 µM [rising, single point]"
CCn1c(SCC(=O)Nc2nncs2)nnc1-c1ccco1,-22.9,–,–
NC(=O)c1c(NC(=O)c2ccccc2C(=O)O)sc2c1CCCC2,22.6,"25.9 µM [rising, single point]",–
CC1(C)Cc2ccccc2C(/C(=N\Nc2cccc(Cl)c2)C(N)=O)=N1,-49,"16.4 µM [falling, partial curve]","18.4 µM [falling, single point]"
Cc1cc(CN2CCN(CC(=O)Nc3cc(Cl)ccc3-n3cncn3)CC2)no1,38.3,"4.61 µM [rising, partial curve]","29.1 µM [rising, single point]"
COc1ccc(S(=O)(=O)N2CCC(n3cnc4cc(C(F)(F)F)ccc43)CC2)cc1,-39.9,"23.1 µM [falling, single point]","18.4 µM [falling, partial curve]"
Cc1onc(-c2c(F)cccc2Cl)c1C(=O)NC(C)c1ccccc1 (configuration not stated),–,–,"6.51 µM [rising, single point]"
CC(C)CC(=O)NC(=S)Nc1ccccc1F,-10.2,"0.58 µM [rising, single point]",–
O=C(NC(=S)NC1CCCCC1)c1ccccc1[N+](=O)[O-],-38.3,"32.6 µM [falling, single point]","29.1 µM [falling, single point]"
CCOC(=O)c1ccc(NC(=O)Cn2c(-c3nonc3N)nc3ccccc32)cc1,-0.361,"29.1 µM [falling, single point]",–
CCOCCCNC(=O)Cn1cnc2c(cnn2-c2ccc(OC)cc2)c1=O,11.6,"0.92 µM [falling, full curve, poor fit]",–
CC1CCc2[nH]nc(C(=O)O)c2C1 (configuration not stated),0.521,"0.731 µM [falling, full curve]",–
O=C(Cn1cnc2ccccc2c1=O)OCCCCN1C(=O)c2ccccc2C1=O,-24.5,"0.184 µM [rising, full curve, poor fit]",–
Nc1c(C(=O)NCCN2CCOCC2)c2nc3ccccc3nc2n1-c1ccc2c(c1)OCO2,155,"29.1 µM [rising, partial curve, poor fit]","29.1 µM [rising, partial curve, poor fit]"
